## Primary screen of a compound library

From ChEMBL document CHEMBL3988442, “University of Dundee, Small-Polar-MMV Screening Library” (2021).

Mtb heat-shock: 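Assay on Mycobacterium tuberculosis, filed only as a heat shock assay from Cornell; the read-out is not stated. The concentration is filed as 10 mM, unlikely as a test dose, so the dose is not known. Direction is inferred from retests: higher values go with stronger inhibition. About 69,000 compounds were tested under these conditions; 1.4% (about 930) showed 50% or more at least once.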
Mtb growth Cornell: 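Whole-cell assay for inhibitors of Mycobacterium tuberculosis growth, labelled Cornell in the record; the read-out is not stated. The concentration is filed as 10 mM, unlikely as a test dose, so the dose is not known. Higher means stronger inhibition (inferred from two other growth screens of the library). Size under these conditions: about 53,000 compounds, about 900 of them at 50% or above in at least one test.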

The filed quantity is “Percent Effect” (%). How 0% and 100% were set is not recorded. Most values in the screen are low, and negative values occur. Compounds were drawn at random from those tested, without regard to their results. A dash means the value is not listed here; it may have been measured.

| # | SMILES | Mtb heat-shock | Mtb growth Cornell |
|---|---|---|---|
| 1 | `CCOc1ccc(S(=O)(=O)NCc2cccnc2N(C)C)cc1` | 7.258% | 6.441% |
| 2 | `CS(=O)(=O)N1CCCC(Cc2cncc(Br)c2)CC1` (configuration not stated) | -16.91% | 28.34% |
| 3 | `Cc1ccccc1C(=O)N1CCCn2cnc(CN3CCCC3=O)c2C1` | -19.43% | - |
| 4 | `CC(NC(=O)Cc1ccccc1F)C(=O)N1CCS(=O)(=O)CC1` (configuration not stated) | -14.53% | 19.17% |
| 5 | `Cc1occc1C(=O)N1CCC2(CCC(C(=O)NCC3CC3)O2)CC1` (configuration not stated) | -23.18% | 16.74% |
| 6 | `O=C(O)C(F)(F)F.[H][C@@]12CCN(c3ncccn3)[C@@]1([H])CCN2S(=O)(=O)c1cccc(C)c1` | 4.957% | 13.94% |
| 7 | `CC(C)N(CC(=O)Nc1ccc(Br)cc1Cl)Cc1cccnc1` | -10.02% | - |
| 8 | `COCc1cc(N2CCOCC2)n2nccc2n1` | -0.1395% | 15.1% |
| 9 | `CC(O)CN1CCN(C(=O)Cc2ccccc2Cl)CC1` (configuration not stated) | -7.486% | - |
| 10 | `CN(C)C(=O)CN1CCc2ncnc(NC3CCC3)c2CC1.O=C(O)C(F)(F)F` | -11.94% | 1.297% |
| 11 | `CCN1CC2(CC1=O)CN(Cc1cnn(C)c1)CCN(C(=O)C(C)C)C2.O=C(O)C(F)(F)F` (configuration not stated) | -4.402% | -14.11% |
| 12 | `Cn1cc(CCC(=O)NCc2ccccc2OC(C)(C)C)cn1` | 12.86% | 19.28% |
| 13 | `c1coc(-c2nnc(CN3CCCC3Cn3cncn3)o2)c1` (configuration not stated) | -0.1935% | - |
| 14 | `CCOc1ccccc1C(=O)NCCc1ccoc1` | -15.89% | 23.58% |
| 15 | `Nc1cc(CCC2CN(Cc3ccc(C(=O)O)cc3)CCO2)ccn1` (configuration not stated) | -29.8% | - |
| 16 | `O=C(NCCNS(=O)(=O)c1ccc2c(c1)CCC2)c1ccccc1` | 0% | 2.895% |
| 17 | `CSc1nccc(N2CCN(C)C3(CCC(=O)N(CC4CC4)CC3)C2)n1` (configuration not stated) | -56.26% | -1.089% |
| 18 | `[H][C@@]12COC[C@H](C(=O)N3CCCC3)[C@]1([H])CN(c1ccncn1)C2` | -14.07% | -17.62% |
| 19 | `CCS(=O)(=O)NCc1nc(C)cc(N2CCCC2)n1` | -17.59% | -1.618% |
| 20 | `CCOc1ccc(-n2nnc(C(=O)O)c2-c2ccncc2)cc1` | -17.5% | -4.621% |
| 21 | `CCC1CN(C)c2ccccc2CN1CCn1cncn1` (configuration not stated) | -32.92% | -3.309% |
| 22 | `O=C(O)C(F)(F)F.[H][C@@]12CCN(CCOCc3ccccc3)[C@]1([H])CC[C@H](C(=O)NC1CC1)O2` | 3.797% | 5.368% |
| 23 | `CC(C)SCC(=O)NCc1cc2n(n1)CCCN(C1CCCCC1)C2` | -4.042% | -6.439% |
| 24 | `Cn1ncc(N2CCC(CNC(=O)[C@@H](N)C3CCCCC3)CC2)cc1=O` | -17.4% | 9.389% |
| 25 | `CCC(CNC(=O)Cc1cc(C)on1)Oc1cccc(F)c1` (configuration not stated) | 5.716% | 20.92% |
| 26 | `CC(C)C(NC(=O)NCC1(CO)CC1)c1nnc2n1CCC2` (configuration not stated) | 10.53% | 8.35% |
| 27 | `Cc1cc(=O)n2nc(Oc3cccc(I)c3)sc2n1` | -3.472% | 41.26% |
| 28 | `CCC(O)CN1CCN(C(=O)c2cccn2Cc2ccccc2)CC1` (configuration not stated) | -8.18% | -18.1% |
| 29 | `Cn1cnc2c1C(COCc1ccccc1)N(Cc1cccnc1)CC2.O=C(O)C(F)(F)F.O=C(O)C(F)(F)F.O=C(O)C(F)(F)F` (configuration not stated) | -18.68% | 16.16% |
| 30 | `CN1CCCN(C(=O)c2nc3sccn3c2-c2ncc[nH]2)CC1` | -13.38% | 34.79% |
| 31 | `COC(=O)C(C)NC(=O)CSCc1nc(O)c2cc(C(C)C)sc2n1` (configuration not stated) | 8.139% | 10.11% |
| 32 | `CC(C)(C)c1n[nH]cc1CNC1CCC(OCC(F)(F)F)CC1.Cl` (configuration not stated) | -7.085% | -6.883% |
| 33 | `CC(C)c1nnc(NC(=O)NCc2ccnc(N(C)C)c2)s1` | 16.19% | - |
| 34 | `[H][C@@]12CCCN1C[C@@H](CCSC)N(Cc1coc3ccc(C)cc3c1=O)C2` | -0.6413% | 33.18% |
| 35 | `[H][C@]12CC[C@@]([H])(C1)N(C(=O)COc1cccc(NC(=O)CC)c1)C2` | -5.848% | 0.4049% |
| 36 | `Cc1cc(CN2CCN(Cc3cnc4c(c3)c(C)nn4C)CC2)on1` | -15.42% | 5.271% |
| 37 | `Cc1ccc(C(CCNCCCN(C)C)C2CCOC(C)(C)C2)cc1.O=C(O)C(=O)O` (configuration not stated) | -7.6% | 5.336% |
| 38 | `O=S(=O)(CCNCc1ccc2c(c1)CCO2)N1CCOCC1` | -8.781% | - |
| 39 | `COc1cccc(CC(=O)NC(C)c2nc3cccnc3n2C(C)C)c1` (configuration not stated) | -10.65% | 7.324% |
| 40 | `O=C(COC1CCCC1)NS(=O)(=O)c1ccc2c(c1)OCCCO2` | -2.972% | 9.686% |
| 41 | `Cc1cc(C(=O)N2CCCC(Cn3cc(C4CC4)nn3)C2)nc(C)n1` (configuration not stated) | 24.05% | 12.97% |
| 42 | `O=c1[nH]nc2c(N3CCC(NC4CCOCC4)CC3)nccn12` | -19.88% | - |
| 43 | `Cc1ccc(OC2(C(=O)O)CCN(C(=O)c3ccc(F)cc3)CC2)cn1` | 0.3913% | -21.13% |
| 44 | `CC1c2ncc(Cn3cncn3)n2CCN1C(=O)c1ccccn1` (configuration not stated) | -23.29% | -23.45% |
| 45 | `CN(Cc1n[nH]c(=O)n1Cc1ccco1)S(C)(=O)=O` | -0.9972% | 21.16% |
| 46 | `Cc1cccc(CN2CCC3(CC2)CC(c2cccnc2)C(=O)N3C)n1.O=C(O)C(F)(F)F.O=C(O)C(F)(F)F` (configuration not stated) | 31.29% | -14.95% |
| 47 | `CN1CCCCC12CCN(C(=O)c1cccn1C)CC2.O=C(O)C(F)(F)F` | -15.79% | -12.77% |
| 48 | `CCC(C)NC(=O)Nc1ccc(CN2CCOC2=O)cc1` (configuration not stated) | 7.383% | -4.806% |
| 49 | `CCN1CCC(NC(=O)CN2CCCCC2Cn2cc(C)cn2)CC1` (configuration not stated) | -21.4% | - |
| 50 | `CCc1nccn1C1CCCN(C(=O)c2ccc3nnc(C)n3c2)C1` (configuration not stated) | -6.886% | -6.641% |
| 51 | `CC(=O)NCCNC(=O)c1cnc(-c2ccc(C)cc2C)s1` | -0.743% | - |